Results from paper PMC9723622.
Results are given in words; binding and its absence hold for the method and conditions named. In cells and extracts the contact can be indirect. Some binding calls cover weakened binding; strength is not graded here. Tags and fused reporters may be left off the sequences shown.

Target: endogenous PARP1 (human (endogenous in U2OS)), P09874
Assay: proximity ligation; Duolink PLA with antibodies to the endogenous proteins in fixed, permeabilised cells; DMSO or hydroxyurea 2 or 18 h; control, TPX2 knock-down
Settings: remark: other sources report otherwise

binding: binds
B1: Histone PARylation Factor (HPF1), endogenous, Q9NWY4 1-346 (protein)
chain: MVGGGGKRRPGGEGPQCEKTTDVKKSKFCEADVSSDLRKEVENHYKLSLPEDFYHFWKFCEELDPEKPSDSLSASLGLQLVGPYDILAGKHKTKKKSTGLNFNLHWRFYYDPPEFQTIIIGDNKTQYHMGYFRDSPDEFPVYVGINEAKKNCIIVPNGDNVFAAVKLFLTKKLREITDKKKINLLKNIDEKLTEAARELGYSLEQRTVKMKQRDKKVVTKTFHGAGLVVPVDKNDVGYRELPETDADLKRICKTIVEAASDEERLKAFAPIQEMMTFVQFANDECDYGMGLELGMDLFCYGSHYFHKVAGQLLPLAYNLLKRNLFAEIIEEHLANRSQENIDQLAA
